Several values for one entry are separate records, joined by “and”; a condition that tells them apart may be missing. Identical values can stand only once. Screen size: about 300,000 compounds; about 3,700 (1.2%) were called active. This list was built around the results that the source calls inconclusive (neither active nor inactive); the mix of calls is not that of the screen. Calls follow the shape of the full dose curve; tested in HEK293 cells. Potencies beside an inconclusive call are fits to weak or partial responses and may not hold up.
Assay: qHTS for Inhibitors of binding or entry into cells for Lassa Virus; also: nearly all actives have a fitted effect of over 50% in size
Details: Lassa virus pseudotype entry inhibition, cell reporter; activity change, negative = inhibition: at 37.9 µM (top of the series) unless noted
With `Cc1ccc(C(=O)N2CC(=O)Nc3ccc(Br)cc3C2c2ccc(F)cc2)cc1C` (centres undefined) the Potency was inconclusive: 35.5 µM [inhibitor, partial curve, poor fit].
In the case of `O=C(Nc1ccccc1C(=O)Nc1ccc2c(c1)OCO2)c1ccco1`, the Potency is reported as inconclusive: 0.282 µM [activator, full curve, poor fit].
In the case of `CCc1ccc(NC(=O)Cn2cnc3nc4c(cc3c2=O)CCCC4)cc1`, the Potency is reported as inconclusive: 2.82 µM [inhibitor, single point].
With `COc1ccccc1C(=O)Nc1ccc2c(c1)nc1n2CCSC1` the Potency was inconclusive: 32.6 µM [inhibitor, single point].
With `CN1CCN(NC(=O)c2cc(Br)ccc2Cl)CC1` the “activity change, negative = inhibition” value was inactive: 0.315%.
In the case of `O=C(NC(Nc1nc2ccc([N+](=O)[O-])cc2s1)(C(F)(F)F)C(F)(F)F)c1cccnc1`, the Potency is reported as inconclusive: 14.6 µM [inhibitor, partial curve, poor fit].
In the case of `CC1=CC(=NOC(=O)/C=C/c2ccccc2)C=C(C)C1=O`, the “activity change, negative = inhibition” value is reported as inactive: 5.11%.
In the case of `O=C1CCCc2cc(S(=O)(=O)N3CCCC(C(=O)NCc4ccccc4Cl)C3)ccc2N1` (centres undefined), the Potency is reported as inconclusive: 3.98 µM [inhibitor, single point].
With `COc1cc(/C=N/NC(=O)c2nnn(-c3nonc3N)c2C(C)C)ccc1OCc1ccc(F)cc1` the Potency was inconclusive: 15.8 µM [inhibitor, single point].
In the case of `CCOC(=O)NN=C1c2ccccc2-c2ccccc21`, the “activity change, negative = inhibition” value is reported as inactive: -25.9%.
In the case of `COC(=O)CSc1nc(N2CCOCC2)c2c(c1C#N)CC(C)(C)N(C)C2`, the “activity change, negative = inhibition” value is reported as inactive: 0.757%.
With `CC1OC2(OC1C)C(=O)Nc1ccccc12` (centres undefined) the “activity change, negative = inhibition” value was inactive: -9.93%.
In the case of `COc1ccc(/C=C2/CCc3ccccc3C2=O)cc1CN1CCOCC1`, the Potency is reported as inconclusive: 0.411 µM [inhibitor, full curve, poor fit].
With `COc1ccc(CNC(=O)C(C)NCc2ccccc2Cl)cc1` (centres undefined) the Potency was inconclusive: 7.94 µM [inhibitor, partial curve].
For `C=CCn1c(SCc2csc(-c3ccc(C)cc3)n2)nnc1-c1ccccc1OC`, the Potency was inconclusive: 35.5 µM [inhibitor, single point].
In the case of `COc1ccccc1NS(=O)(=O)c1cc(NC(=O)c2cccs2)ccc1N1CCCC1`, the Potency is reported as active: 11.6 µM.
In the case of `CN(C)C(CNC(=O)c1ccc2nccnc2c1)c1ccco1` (centres undefined), the “activity change, negative = inhibition” value is reported as inactive: 0.915% [at 46.1 µM].
With `CCN(Cc1ccccc1)C(=O)c1ccc(N(C)S(=O)(=O)c2ccc(C)cc2)cc1` the Potency was inconclusive: 12.6 µM [inhibitor, single point].
With `CCOC(=O)/C=C1\SCC(=O)N1CC(=O)Nc1ccc(C(C)C)cc1` the Potency was inconclusive: 15.8 µM [inhibitor, partial curve, poor fit].
For `NCc1ccc2[nH]c(=O)[nH]c2c1`, the Potency was inconclusive: 11.2 µM [activator, partial curve, poor fit].
In the case of `O=C(CSc1ncc(-c2ccccc2)[nH]1)Nc1ccccc1F`, the “activity change, negative = inhibition” value is reported as inactive: -5.06% [at 46.1 µM].
With `CN(CC(=O)Nc1cccc(F)c1)C(=O)CSc1nc2ccccc2s1` the Potency was inconclusive: 3.98 µM [activator, full curve, poor fit].
In the case of `Cc1ccsc1/C=N/NC(=O)CNC(=O)c1ccco1`, the Potency is reported as inconclusive: 7.94 µM [activator, partial curve, poor fit].
With `CC(C)CC(O)(c1ccccc1)C(CN1CCOCC1)c1ccccc1` (centres undefined) the “activity change, negative = inhibition” value was inactive: -5.37% [at 46.1 µM].
For `Cc1c(C(=O)NCCCN2CCOCC2)oc2c1C1(CCC2)SCCS1`, the “activity change, negative = inhibition” value was inactive: -18.3%.
In the case of `CS(=O)(=O)c1ncc(Cl)c(C(=O)N(Cc2ccc(Cl)cc2)Cc2ccco2)n1`, the Potency is reported as inconclusive: 8.91 µM [inhibitor, partial curve, poor fit].
In the case of `Cc1ccc(NC(=O)CCc2nc(-c3ccccc3F)no2)c(C)c1`, the Potency is reported as inconclusive: 12.6 µM [activator, partial curve, poor fit].
For `O=C(COC(=O)c1cc([N+](=O)[O-])ccc1N1CCOCC1)Nc1c(Cl)cccc1C(F)(F)F`, the Potency was inconclusive: 14.1 µM [inhibitor, single point].
For `Cc1oc(-c2ccc(Cl)cc2)nc1CN1CCC(C(=O)NCCCN2CCOCC2)CC1`, the Potency was inconclusive: 29.1 µM [inhibitor, single point].
With `Clc1cc(Cl)c(OCc2nc(-c3ccccn3)no2)cc1Cl` the Potency was inconclusive: 32.6 µM [inhibitor, single point].
With `CCC(=O)N1CCc2cc(CNS(=O)(=O)c3ccccc3F)ccc21` the “activity change, negative = inhibition” value was inactive: -2.48% [at 46.1 µM].
With `COc1ccccc1CN1C[C@@H]2C[C@@H](c3ccc4nsnc4c3)N3CCC[C@@]23C1=O` the “activity change, negative = inhibition” value was inactive: -0.159% [at 46.1 µM].
With `CC1CCCN(C(=O)Cc2cccc3ccccc23)C1` (centres undefined) the Potency was inconclusive: 0.631 µM [inhibitor, single point].
For `CN(Cc1ccccc1F)C(=O)c1ccccc1Sc1ccccc1C#N`, the “activity change, negative = inhibition” value was inactive: 6.13% [at 46.1 µM].
In the case of `CC1Sc2ccc(S(=O)(=O)N3CCC(C(=O)Nc4cccc(Cl)c4)CC3)cc2NC1=O` (centres undefined), the Potency is reported as inconclusive: 35.5 µM [inhibitor, partial curve, poor fit].
For `O=C(Cc1ccccc1)Nc1nc2ccccc2s1`, the “activity change, negative = inhibition” value was inactive: -20.9%.
With `Cc1ccc2cc(CN(CC3CCCO3)C(=S)Nc3ccccc3)c(=O)[nH]c2c1C` (centres undefined) the Potency was inconclusive: 4.47 µM [inhibitor, full curve, poor fit].
With `O=C(CSc1nnc(C2CCCCC2)o1)N1CCCCC1` the Potency was inconclusive: 4.61 µM [activator, full curve, poor fit].
With `CCCCOCCCNc1ncnc2c1[nH]c1ccccc12` the Potency was inconclusive: 5.8 µM [inhibitor, full curve, poor fit].
For `O=c1c2c3c(sc2nc2n1CCCC2)CCCCC3`, the “activity change, negative = inhibition” value was inactive: 7.54%.
For `Cn1ncc([N+](=O)[O-])c1C(=O)Nc1nccs1`, the “activity change, negative = inhibition” value was inactive: 16.1%.
In the case of `Cc1ccc(NC(=O)C(Cc2ccccc2)NS(=O)(=O)c2ccc3c(c2)oc(=O)n3C)cc1C` (centres undefined), the Potency is reported as inconclusive: 6.31 µM [activator, full curve, poor fit].
For `Cc1ccc(C)c(NC(=S)NNC(=O)c2sccc2C)c1`, the Potency was inconclusive: 0.0183 µM [activator, full curve, poor fit].
For `COc1ccc(C)cc1Nc1c2c(nc3ccccc13)CCC2`, the Potency was inconclusive: 708 nM [inhibitor, full curve, poor fit] and inconclusive: 562 nM [inhibitor, full curve, poor fit].

Reference: PubChem BioAssay AID540256 (National Center for Advancing Translational Sciences (NCATS), 2011)
% is scaled to controls: 0 for no effect and ±100 for the full control effect; potency is read from the fitted curve at half-maximal effect.
